Data from patent US8445509B2, “Fused heterocyclic derivatives and use thereof” (Takeda Pharmaceutical Company Limited, priority 2008, dated 2013).
Some entries share one result that the patent states for a list of compounds.

Protein sequences, listed by entry. Tags and fused reporters are not part of them. Residues count along the entry.
UniProt Q02763, 770-1124 limits assumed: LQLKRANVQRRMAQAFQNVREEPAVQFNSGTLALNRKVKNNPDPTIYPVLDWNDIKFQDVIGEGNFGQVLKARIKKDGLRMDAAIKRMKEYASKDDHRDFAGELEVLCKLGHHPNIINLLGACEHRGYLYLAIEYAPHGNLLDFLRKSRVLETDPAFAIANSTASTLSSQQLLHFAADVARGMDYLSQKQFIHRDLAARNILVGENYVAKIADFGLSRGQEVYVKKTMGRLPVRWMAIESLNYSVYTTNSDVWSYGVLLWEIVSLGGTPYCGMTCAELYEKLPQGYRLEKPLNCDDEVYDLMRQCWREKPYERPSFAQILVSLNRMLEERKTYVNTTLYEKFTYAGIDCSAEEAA

Biological target: T1, Tie2 intracellular domain protein (Homo sapiens, UniProt Q02763)
T1 construct: 50 ng/mL of Tie2 intracellular domain protein (Millipore); purchased Millipore
Assay: TIE2 kinase inhibitory activity (AlphaScreen)
Format: biochemical
Settings: 1 μM test compound
Description: A test compound dissolved in dimethyl sulfoxide (DMSO) was diluted with a buffer (50 mM Tris-HCl (pH 7.5), 5 mM MgCl2, 5 mM MnCl2, 2 mM dithiothreitol, 0.01% Tween-20). A buffer (10 μL) containing 50 ng/mL of Tie2 intracellular domain protein (Millipore) and 250 ng/ml, of biotin labeled polypeptide biotinyl-poly-Glu:Tyr (4:1) (CIS bio International) was added to the compound solution (5 μL). At 5 min from the mixing of the kinase enzyme, the compound and the biotin labeled polypeptide, a buffer (10 μL) containing 5 μM ATP was added, and the mixture was reacted at 25° C. for 10 min. The reaction was quenched by the addition of 25 μL of a stop solution (100 mM EDTA disodium salt, 62.5 mM HEPES buffer (pH 7.4), 250 mM NaCl, 0.1% bovine serum albumin, 10 μg/ml AlphaScreen assay streptavidin donor beads (Streptavidin Donor beads: PerkinElmer), 10 μg/ml, AlphaScreen assay anti-phosphotyrosine recognition antibody PT-66 binding acceptor beads (Anti-phosphotyrosine (PT-66) Acceptor beads: PerkinElmer)). The reaction solution was allowed to stand at 25° C. for 16 hrs, and the […] were counted using a plate reader (Fusion™ (PerkinElmer)). The kinase inhibitory rate (%) of the test compound was calculated by the following formula: Inhibitory rate (%)=(1−(count of test compound−blank)÷(control−blank))×100
The count of the solution reacted without addition of the compound was used as a “control”, and the count of the solution without the compound and ATP was used as a “blank”.

| Compound | inhibitory rate (%) at 1 μM |
| --- | --- |
| Cc1ccc(C(=O)Nc2ccc(Oc3ccc4nc(NC(=O)C5CC5)cn4c3)c(F)c2)c(=O)n1-c1ccccc1 [Example 86, N-[4-({2-[(cyclopropylcarbonyl)amino]imidazo[1,2-a]pyridin-6-yl}oxy)-3-fluorophenyl]-6-methyl-2-oxo-1-phenyl-1,2-dihydropyridine-3-carboxamide acetate] | not less than 50% |
| Cc1ccc(C(=O)Nc2ccc(Oc3ccc4nc(NC(=O)C5CC5)cn4c3)c(F)c2)c(=O)n1-c1ccccc1.Cc1ccc(S(=O)(=O)O)cc1 [Example 87, N-[4-({2-[(cyclopropylcarbonyl)amino]imidazo[1,2-a]pyridin-6-yl}oxy)-3-fluorophenyl]-6-methyl-2-oxo-1-phenyl-1,2-dihydropyridine-3-carboxamide p-toluenesulfonate] | not less than 50% |
| Cc1ccc(C(=O)Nc2ccc(Oc3ccc4nc(NC(=O)C5CC5)cn4c3)c(F)c2)c(=O)n1-c1ccccc1.Cl [Example 88, N-[4-({2-[(cyclopropylcarbonyl)amino]imidazo[1,2-a]pyridin-6-yl}oxy)-3-fluorophenyl]-6-methyl-2-oxo-1-phenyl-1,2-dihydropyridine-3-carboxamide hydrochloride] | not less than 50% |
